In this assay the target is mSIN1 subunit of mTORC2 (human (endogenous in MCD cortical tissue)) (UniProt Q9BPZ7). Description: co-IP; endogenous proteins in lysate supernatant of human MCD cortical samples; 2 µg anti-WNK1 Ab or anti-mSIN1 Ab, 60 min at room temperature, Dynabeads protein G; western blot with anti-mTOR, anti-WNK1 or anti-SPAK/OSR1; for the mSIN1 IPs slices were pretreated 30 min with DMSO, rapamycin or WNK463 (less co-precipitate with the inhibitors); normal IgG as negative control.

Amino acid sequences for entries named in this document (tags omitted).
UniProt Q9BPZ7: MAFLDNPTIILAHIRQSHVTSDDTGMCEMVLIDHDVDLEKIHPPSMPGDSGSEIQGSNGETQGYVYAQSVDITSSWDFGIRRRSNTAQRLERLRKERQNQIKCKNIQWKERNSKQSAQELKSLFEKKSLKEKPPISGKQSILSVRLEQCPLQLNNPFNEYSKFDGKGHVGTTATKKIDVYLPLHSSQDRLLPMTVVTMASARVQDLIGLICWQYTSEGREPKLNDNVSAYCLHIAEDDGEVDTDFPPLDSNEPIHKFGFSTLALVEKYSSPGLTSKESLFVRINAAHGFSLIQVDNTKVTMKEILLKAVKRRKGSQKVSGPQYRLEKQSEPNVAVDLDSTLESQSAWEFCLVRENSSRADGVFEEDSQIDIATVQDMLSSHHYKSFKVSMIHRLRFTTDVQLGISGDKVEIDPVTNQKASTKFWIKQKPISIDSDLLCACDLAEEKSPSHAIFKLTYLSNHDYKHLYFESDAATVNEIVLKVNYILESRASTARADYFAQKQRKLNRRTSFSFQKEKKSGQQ
UniProt Q9H4A3: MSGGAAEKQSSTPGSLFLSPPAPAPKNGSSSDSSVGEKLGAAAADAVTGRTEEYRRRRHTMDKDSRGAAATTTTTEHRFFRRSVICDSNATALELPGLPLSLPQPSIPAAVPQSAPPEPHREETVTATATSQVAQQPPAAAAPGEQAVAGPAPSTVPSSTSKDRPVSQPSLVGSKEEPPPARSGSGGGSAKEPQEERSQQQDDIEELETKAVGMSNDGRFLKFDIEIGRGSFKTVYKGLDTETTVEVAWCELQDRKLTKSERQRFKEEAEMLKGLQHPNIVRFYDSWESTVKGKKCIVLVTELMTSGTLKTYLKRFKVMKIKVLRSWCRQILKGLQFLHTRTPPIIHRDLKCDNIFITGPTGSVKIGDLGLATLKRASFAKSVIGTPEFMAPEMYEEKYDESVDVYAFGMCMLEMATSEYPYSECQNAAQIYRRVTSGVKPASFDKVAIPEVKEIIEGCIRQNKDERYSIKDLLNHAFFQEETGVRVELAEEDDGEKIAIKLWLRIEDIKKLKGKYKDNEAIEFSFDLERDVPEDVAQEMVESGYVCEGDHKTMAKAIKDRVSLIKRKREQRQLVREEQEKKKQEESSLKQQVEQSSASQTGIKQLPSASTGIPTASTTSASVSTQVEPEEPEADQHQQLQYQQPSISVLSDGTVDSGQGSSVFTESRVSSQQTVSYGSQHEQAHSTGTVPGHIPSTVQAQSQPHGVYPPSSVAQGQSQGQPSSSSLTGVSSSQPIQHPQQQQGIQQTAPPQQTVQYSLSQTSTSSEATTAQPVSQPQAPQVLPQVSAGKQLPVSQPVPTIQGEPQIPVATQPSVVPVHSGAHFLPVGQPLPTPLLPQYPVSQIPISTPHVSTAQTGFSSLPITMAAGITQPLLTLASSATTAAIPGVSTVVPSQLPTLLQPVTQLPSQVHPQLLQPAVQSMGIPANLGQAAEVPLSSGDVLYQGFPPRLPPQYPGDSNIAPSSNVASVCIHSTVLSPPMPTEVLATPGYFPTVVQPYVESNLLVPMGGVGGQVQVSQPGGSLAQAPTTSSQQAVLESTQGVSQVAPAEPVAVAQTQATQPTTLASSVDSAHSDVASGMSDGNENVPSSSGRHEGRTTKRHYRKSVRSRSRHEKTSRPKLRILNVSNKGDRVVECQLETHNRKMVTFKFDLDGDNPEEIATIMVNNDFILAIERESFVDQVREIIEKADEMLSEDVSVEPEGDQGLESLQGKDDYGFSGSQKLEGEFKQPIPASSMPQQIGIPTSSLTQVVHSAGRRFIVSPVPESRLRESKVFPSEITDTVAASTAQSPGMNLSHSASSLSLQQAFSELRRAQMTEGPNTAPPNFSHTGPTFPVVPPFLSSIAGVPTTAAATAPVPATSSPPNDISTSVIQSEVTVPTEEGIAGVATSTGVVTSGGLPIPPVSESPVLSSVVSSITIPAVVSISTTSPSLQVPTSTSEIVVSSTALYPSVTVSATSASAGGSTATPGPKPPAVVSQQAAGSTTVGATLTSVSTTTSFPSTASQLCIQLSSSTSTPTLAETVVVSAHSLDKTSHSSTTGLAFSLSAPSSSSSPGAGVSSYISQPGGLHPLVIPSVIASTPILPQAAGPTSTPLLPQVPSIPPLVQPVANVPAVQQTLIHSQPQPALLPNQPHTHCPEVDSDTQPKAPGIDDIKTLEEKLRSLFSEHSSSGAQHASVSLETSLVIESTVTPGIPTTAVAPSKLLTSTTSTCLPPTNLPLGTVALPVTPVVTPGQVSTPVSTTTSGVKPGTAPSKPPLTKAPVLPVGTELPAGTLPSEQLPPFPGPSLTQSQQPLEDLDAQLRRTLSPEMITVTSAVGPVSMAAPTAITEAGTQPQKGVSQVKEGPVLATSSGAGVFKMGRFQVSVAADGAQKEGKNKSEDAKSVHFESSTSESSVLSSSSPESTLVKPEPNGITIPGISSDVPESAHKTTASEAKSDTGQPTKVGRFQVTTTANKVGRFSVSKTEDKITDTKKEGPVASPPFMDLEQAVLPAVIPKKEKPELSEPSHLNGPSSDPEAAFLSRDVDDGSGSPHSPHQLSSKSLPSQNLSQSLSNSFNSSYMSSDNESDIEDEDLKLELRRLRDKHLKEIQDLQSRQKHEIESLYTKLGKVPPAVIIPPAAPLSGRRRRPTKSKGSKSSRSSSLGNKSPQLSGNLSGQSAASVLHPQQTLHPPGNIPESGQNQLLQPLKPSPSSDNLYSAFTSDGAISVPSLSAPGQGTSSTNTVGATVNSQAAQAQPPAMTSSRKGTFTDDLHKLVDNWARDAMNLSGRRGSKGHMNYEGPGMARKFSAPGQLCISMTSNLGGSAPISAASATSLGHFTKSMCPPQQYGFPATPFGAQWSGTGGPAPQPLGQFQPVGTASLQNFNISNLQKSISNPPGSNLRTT

No constants are given. Whether binding was seen depends on the method and setting. In cells and extracts the contact can be indirect. Some binding calls cover weakened binding; strength is not graded here.

As to WNK1 (from UniProt Q9H4A3 1-2382), the binding entry is “binds”.

The record behind these values is paper PMC11788215.
